Binding data for 2 molecules are collected here from PMC7396582.

Results are given in words; binding and its absence hold for the method and conditions named. In cells and extracts the contact can be indirect. A yes stands for co-enrichment or nearness to the bait. Other partners may have been found.

This experiment has as its target T1, M6a-loops (rat) (UniProt Q812E9).
T1 sequence (chain, biotin on the BAP (sec-BirA from the pBig plasmid)): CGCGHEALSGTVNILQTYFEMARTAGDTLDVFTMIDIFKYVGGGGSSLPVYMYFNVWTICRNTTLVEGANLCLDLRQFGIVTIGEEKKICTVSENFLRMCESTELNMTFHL
The experiment can be described thus: affinity purification with mass spectrometry; M6a-loops (10-25 ug, from concentrated supernatant) held by anti-SV5-mAb cross-linked to protein A magnetic beads (1 h, room temperature); incubated with clarified pooled rat hippocampi extract (P14, P21, P30; 1% Triton X-100 in PBS; 200-350 ug) overnight at 4 C; washed three times with PBS-T; eluted in SDS buffer with DTT; TMT/MS; mock: M6a-loops with protein A beads without anti-SV5; three co-IPs with two replicates each.

B1: Slc17a7 (protein, UniProt Q62634 1-560)
chain: MEFRQEEFRKLAGRALGRLHRLLEKRQEGAETLELSADGRPVTTHTRDPPVVDCTCFGLPRRYIIAIMSGLGFCISFGIRCNLGVAIVSMVNNSTTHRGGHVVVQKAQFNWDPETVGLIHGSFFWGYIVTQIPGGFICQKFAANRVFGFAIVATSTLNMLIPSAARVHYGCVIFVRILQGLVEGVTYPACHGIWSKWAPPLERSRLATTAFCGSYAGAVVAMPLAGVLVQYSGWSSVFYVYGSFGIFWYLFWLLVSYESPALHPSISEEERKYIEDAIGESAKLMNPVTKFNTPWRRFFTSMPVYAIIVANFCRSWTFYLLLISQPAYFEEVFGFEISKVGLVSALPHLVMTIIVPIGGQIADFLRSRHIMSTTNVRKLMNCGGFGMEATLLLVVGYSHSKGVAISFLVLAVGFSGFAISGFNVNHLDIAPRYASILMGISNGVGTLSGMVCPIIVGAMTKHKTREEWQYVFLIASLVHYGGVIFYGVFASGEKQPWAEPEEMSEEKCGFVGHDQLAGSDESEMEDEVEPPGAPPAPPPSYGATHSTVQPPRPPPPVRDY
B1: the binding entry is “binds”.

B2: Rnpep (protein, UniProt O09175 1-650)
chain: MESSGPSSCHSAARRPLHSAQAVDVASASSFRAFEILHLHLDLRAEFGPPGPGPGSRGLNGKATLELRCLLPEGASELRLDSHSCLEVMAATLLRGQPGDQQQLTEPVPFHTQPFSHYGQALCVVFPKPCCAAERFRLELTYRVGEGPGVCWLAPEQTAGKKKPFVYTQGQAVLNRAFFPCFDTPAVKCTYSALVEVPDGFTAVMSASTWERRGPNKFFFQMSQPIPSYLIALAIGDLASAEVGPRSRVWAEPCLIEAAKEEYNGVIEEFLATGEKLFGPYVWGRYDLLFMPPSFPFGGMENPCLTFVTPCLLAGDRSLADVIIHEISHSWFGNLVTNANWGEFWLNEGFTMYAQRRISTILFGAAYTCLEAATGRALLRQHMDVSGEENPLNKLRVKIEPGVDPDDTYNETPYEKGYCFVSYLAHLVGDQEQFDKFLKAYVDEFKFQSILAEDFLEFYLEYFPELKKKGVDSIPGFEFNRWLNTPGWPPYLPDLSPGDSLMKPAEELAELWAASEPDMQAIEAVAISTWKTYQLVYFLDKILQKSPLPPGNVKKLGETYPKISNAQNAELRLRWGQIILKNDHQEEFWKVKDFLQSQGKQKYTLPLYHAMMGGSEMARTLAKETFSATASQLHSNVVNYVQQILAPKGS
Take B2: the binding result is reported as “binds”.
